Experiment: Redox activity, photometric surrogate assay (DTT/resazurin)
Conditions: for Conversion (%) / Z-score: Redox activity

SMILES | Conversion (%) | Z-score | redox-active (resazurin/DTT surrogate assay)
O=c1c(O)c(-c2ccc(O)c(O)c2)oc2cc(O)cc(O)c12 [compound 405356, quercetin, reference compound] | 0.0343 | 0.674 | –
O=C(O)c1ccc2c(c1)C(=O)N(c1ccc(-c3nc4ccc(N5C(=O)c6ccc(C(=O)O)cc6C5=O)cc4[nH]3)cc1)C2=O [FMP-201300] | -0.0816 | -0.225 | neither redox-active
